Our source for the isolated yield values is paper PMC7497679 (Investigational New Drugs, 2020).

Series [1] can be described thus: general procedure: Fmoc solid-phase peptide synthesis; 2-Cl-Trt resin; HBTU/DIPEA; HATU/HOBt/DIPEA for 5(6)-Fam labelling. Particulars: whole synthesis.
A short description of series [2]: general procedure: Fmoc solid-phase peptide synthesis; Rink Amide resin; HBTU/DIPEA; HATU/HOBt/DIPEA for 5(6)-Fam labelling. Particulars: whole synthesis.

For some assays here: Some peptides are written in HELM: one residue between dots, names in brackets for other building blocks, links after the first $.

Turning to PEPTIDE1{A.V.P.W}$$$$V2.0, the isolated yield result in series [1] is on record as “Yield 39%”.

Regarding “H-Ala-Val-Pro-Dpm-Ala-Lys(5(6)-Fam)-Lys-NH2”, the isolated yield entry in series [2] is “Yield 12%”.
